Laboratory results from PubChem BioAssay AID540276 (National Center for Advancing Translational Sciences (NCATS), 2011).
The campaign covered roughly 300,000 compounds. About 5,400 (1.8%) were called active. Inconclusive means that the source gave no clear call. Such entries were picked first, then a sample of the others. Calls come from the whole dose curve; tested in HEK293 cells. Potencies beside an inconclusive call are fits to weak or partial responses and may not hold up.

Assay: qHTS for inhibitors of binding or entry into cells for Marburg Virus
Details: Marburg virus pseudotyped entry inhibition, cell reporter; activity change, negative = inhibition: at 37.8 µM (top of the series) unless noted
% is set by controls: 0 for no effect and ±100 for the full control effect; potency is the fitted concentration of half-maximal effect.

| Structure (SMILES) | Potency | activity change, negative = inhibition |
| --- | --- | --- |
| CC12COC3(P(=O)(c4ccccc4)c4ccccc4)CC1CCC23CP(=O)(c1ccccc1)c1ccccc1 (centres undefined) | inconclusive: 35.5 µM [inhibitor, partial curve, poor fit] |  |
| CC(=O)c1cccc(NC(=O)C(OC(=O)c2cccs2)c2ccccc2)c1 (centres undefined) | inconclusive: 31.6 µM [activator, single point] |  |
| Cc1ccc(C)c(S(=O)(=O)N2CCN(CC(=O)Nc3ccc4c(c3)CCC4)CC2)c1 | inconclusive: 35.5 µM [inhibitor, single point] |  |
| CN(Cc1cccc(Cl)c1)C(=O)C1CCN(C(=O)Nc2ccccc2)CC1 | inconclusive: 22.4 µM [activator, single point] |  |
| COc1ccccc1NCC(=O)NN=C1CCS(=O)(=O)c2ccc(F)cc21 | inconclusive: 22.4 µM [inhibitor, single point] |  |
| COc1ccc([N+](=O)[O-])cc1NC(=O)c1ccco1 | inactive |  |
| CCOc1cccc(OCCCCN2CCCCC2)c1 | inactive |  |
| Cc1ccn2c(Nc3ccc(C(C)C)cc3)c(-c3cccs3)nc2c1 | inconclusive: 4.47 µM [activator, full curve, poor fit] |  |
| COc1cc(C(=O)NCc2nnc(SCC(=O)N3CCCCCC3)o2)cc(OC)c1OC | inconclusive: 31.6 µM [inhibitor, single point] |  |
| Cc1onc(C(=O)N2C(C)CCCC2C)c1[N+](=O)[O-] (centres undefined) | inconclusive: 0.282 µM [inhibitor, full curve, poor fit] |  |
| Cc1nn2c(N3CCN(C4CCCC4)CC3)cc(C(C)(C)C)nc2c1-c1ccccc1 | inactive |  |
| CCN(CC)S(=O)(=O)c1cccc(C(=O)N/N=C(\C)c2cccs2)c1 | inactive |  |
| O=C1OC(C(=O)Nc2ccccc2)Cc2ccccc21 (centres undefined) |  | inconclusive: 37.4% [activator] [at 46.1 µM] |
| OCCN1CCN(c2nc(-c3ccccc3O)nc3ccccc23)CC1 | inconclusive: 12.6 µM [inhibitor, single point] |  |
| Cc1ccc(Cn2c(SCC(=O)NCc3ccco3)nc3ccsc3c2=O)cc1 | inconclusive: 29.1 µM [inhibitor, single point] |  |
| COc1ccccc1CCC(=O)N(Cc1ccccc1)c1c(N)n(Cc2ccccc2)c(=O)[nH]c1=O | inactive |  |
| O=C(CCCN1C(=O)/C(=C/c2ccccc2Cl)SC1=S)NNC(=O)c1ccncc1 | inconclusive: 12.6 µM [inhibitor, partial curve, poor fit] |  |
| Cc1ccc(NC(=O)COC(=O)Cn2cnc3ccccc32)c([N+](=O)[O-])c1 | inactive |  |
| CCc1ccc(C(C)NC(=S)NCc2ccc(F)cc2)cc1 (centres undefined) | inconclusive: 35.5 µM [inhibitor, single point] |  |
| O=C(NNC1=NS(=O)(=O)c2ccccc21)c1ccc([N+](=O)[O-])cc1 | inconclusive: 7.94 µM [inhibitor, partial curve, poor fit] |  |
| COc1ccc(OC)c(C2C3=C(CCCC3=O)NC3=C2C(=O)CCC3)c1 | inconclusive: 6.31 µM [inhibitor, single point] |  |
| C[C@H](NC(=O)N1CCc2nc(-c3ccccc3)c3c(c2C1)CO[C@@H](C)C3)c1ccccc1 | inactive |  |

Three compounds already listed, ordered by SMILES length, low to high:

| Structure (SMILES) | Potency | activity change, negative = inhibition |
| --- | --- | --- |
| CCc1ccc(C(C)NC(=S)NCc2ccc(F)cc2)cc1 (centres undefined) | inconclusive: 35.5 µM [inhibitor, single point] |  |
| COc1ccc([N+](=O)[O-])cc1NC(=O)c1ccco1 | inactive |  |
| C[C@H](NC(=O)N1CCc2nc(-c3ccccc3)c3c(c2C1)CO[C@@H](C)C3)c1ccccc1 | inactive |  |

As entered above:
Potency, COc1cc(C(=O)NCc2nnc(SCC(=O)N3CCCCCC3)o2)cc(OC)c1OC is entered as inconclusive: 31.6 µM [inhibitor, single point]
Potency, Cc1ccc(C)c(S(=O)(=O)N2CCN(CC(=O)Nc3ccc4c(c3)CCC4)CC2)c1 is entered as inconclusive: 35.5 µM [inhibitor, single point]

Next results follow.

| Structure (SMILES) | Potency | activity change, negative = inhibition |
| --- | --- | --- |
| Cc1c(C)n2c(SCC(=O)N3CCOCC3)nnc2[nH]c1=O | inactive |  |
| O=c1[nH]c(NNC(=S)NC2CCCCC2)nc2c1C1(CCCC1)Cc1ccccc1-2 | inconclusive: 8.91 µM [inhibitor, single point] |  |
| Cc1nc2ccc(NC(=O)Cc3cccs3)cc2s1 | inactive |  |
| COc1ccc(S(=O)(=O)N2CCCCC2)cc1Br | inactive |  |
| COc1ccc(OC)c(C(c2nnnn2C2CCCC2)N2CCc3ccccc3C2)c1 (centres undefined) | inconclusive: 35.5 µM [inhibitor, partial curve, poor fit] |  |
| CC(C)COc1ccc(C(=O)Nc2scc(-c3ccc(Cl)cc3Cl)c2C(N)=O)cc1 | inconclusive: 0.631 µM [inhibitor, partial curve, poor fit] |  |
| O=C(Nc1ccc2oc(-c3ccc(O)c(Br)c3)nc2c1)c1cc2ccccc2o1 | inconclusive: 2.51 µM [activator, full curve] |  |
| O=S(=O)(c1ccc2nc(SCc3ccc(Cl)cc3)[nH]c2c1)N1CCOCC1 | inconclusive: 2 µM [inhibitor, partial curve, poor fit] |  |
| CC(O)(CS(=O)(=O)c1cccc(C(F)(F)F)c1)C(=O)Nc1ccc(C(F)(F)F)cc1 (centres undefined) | inconclusive: 20.6 µM [inhibitor, single point] |  |
| CCOC(=O)C1=C(O)/C(=C/c2cn(CC(=O)N3CCCC3)c3ccccc23)SC1=Nc1ccccc1 | inconclusive: 8.91 µM [inhibitor, partial curve, poor fit] |  |
| Clc1ccc(-c2csc(N3CCOCC3)n2)cc1 | inconclusive: 3.98 µM [activator, full curve] |  |
| COc1ccc(NC(=O)CC(c2ccccc2)c2ccco2)cc1 (centres undefined) | inactive |  |
| COc1ccc(OC)c(NC(=O)c2nc(-c3ccccc3)oc2C)c1 | inactive |  |
| O=C(N/N=C/c1cccnc1)C1CC1(c1ccccc1)c1ccccc1 (centres undefined) | inconclusive: 1.78 µM [inhibitor, single point] |  |
| CCOCCCNCc1ccc(Cl)cc1 | inconclusive: 4.47 µM [activator, full curve, poor fit] |  |
| Cc1ccc(NC(=O)C2CC2c2ccccc2)c([N+](=O)[O-])c1 (centres undefined) | inactive |  |
| O=[N+]([O-])c1cccc(CNC2CCCCCC2)c1 | inconclusive: 8.91 µM [inhibitor, single point] |  |
| COCC1CCN(Cc2nc(Cc3ccccc3Cl)no2)CC1 | inconclusive: 31.6 µM [activator, single point] |  |
| CCOc1cc(S(=O)(=O)NCc2ccc(OC)cc2)c(OCC)cc1-n1cnnn1 | inconclusive: 1.64 µM [inhibitor, full curve, poor fit] |  |
| COc1ccc(C2C(C#N)=C(C)NC3=C2S(=O)(=O)c2ccccc23)cc1 (centres undefined) | inactive |  |
| Cc1cc(NC(=O)COC(=O)Cn2[nH]c(=O)c3ccccc3c2=O)c([N+](=O)[O-])cc1C | inconclusive: 0.178 µM [activator, full curve, poor fit] |  |
| Cc1cccc(N2CCN(C(=O)C3CCN(S(=O)(=O)c4cccc5cccnc45)CC3)CC2C)c1 (centres undefined) | inactive |  |

| Structure (SMILES) | Potency | activity change, negative = inhibition |
| --- | --- | --- |
| Nc1ccc2c(c1)-c1ccc(F)cc1C2=O | inconclusive: 6.31 µM [activator, full curve, poor fit] |  |
| N/C(=N\N=Cc1ccc2c(c1)OCO2)NN=Cc1ccc2c(c1)OCO2 | inconclusive: 22.4 µM [inhibitor, single point] |  |
| CC(C)CC(COCc1ccc(C(F)(F)F)cc1)N1CCN(C(=O)c2ccc(C(F)(F)F)cc2)CCC1=O (centres undefined) | inconclusive: 1.64 µM [inhibitor, partial curve, poor fit] |  |
| CCOc1ccc(C(F)(F)F)cc1NC(=O)COc1ccc(C(F)(F)F)cc1[N+](=O)[O-] | inactive |  |
| CCOC(=O)[C@H](CCc1ccccc1)N[C@@H](C)C(=O)N1[C@H](C(=O)O)C[C@H]2CCCC[C@@H]21 | inactive |  |
| CC(=O)Nc1cc(Cl)ccc1OS(=O)(=O)c1ccc(C)cc1 | inconclusive: 0.141 µM [inhibitor, partial curve, poor fit] |  |
| CN1CCN(c2ccc([N+](=O)[O-])c(N3CCCCC3)c2)CC1 | inconclusive: 12.6 µM [inhibitor, single point] |  |
| O=S(=O)(NCc1ccccc1)c1ccc(S(=O)(=O)N(Cc2ccccn2)C2CCCC2)cc1 | inconclusive: 25.9 µM [inhibitor, single point] |  |
| O=C(c1cc(COc2ccc3ncccc3c2)on1)N1CCCCCC1 | inconclusive: 2.24 µM [inhibitor, partial curve, poor fit] |  |
| O=C(CC(=O)c1ccccc1)Nc1ccc([N+](=O)[O-])cc1 | inconclusive: 1.41 µM [inhibitor, partial curve, poor fit] |  |
| COc1ccc(NS(=O)(=O)c2ccc(N3CCOCC3)c(NC(=O)/C=C/C(=O)O)c2)cc1 | inconclusive: 5.62 µM [activator, single point] |  |
| Cc1cc(C(C)(C)C)cc(C)c1COC(=O)C1CCC(=O)N1 (centres undefined) | inconclusive: 35.5 µM [inhibitor, single point] |  |
| COc1ccc(S(=O)(=O)N2CCCCCC2)cc1NC(=O)Cc1ccc(OC)c(OC)c1 | inconclusive: 8.91 µM [inhibitor, partial curve, poor fit] |  |
| O=C(CSc1ncnc2[nH]ncc12)Nc1nc(-c2ccc(F)c(F)c2)cs1 | inconclusive: 29.1 µM [inhibitor, single point] |  |
| CC(C)C(NC(=O)c1ccc(Cl)cc1)C(=O)O (centres undefined) | inconclusive: 1.3 µM [inhibitor, partial curve, poor fit] |  |
| N#CC1c2ccccc2C=CN1C(=O)N(c1ccccc1)c1ccccc1 (centres undefined) | inconclusive: 15.8 µM [inhibitor, single point] |  |
| O=C(Nc1ccc2ccccc2c1)[C@@H]1C[C@H]1[C@@H](NP(=O)(c1ccccc1)c1ccccc1)c1ccccc1 | inactive |  |
| COc1cc(-c2nnc(SC/C=C/c3ccccc3)n2N)cc(OC)c1OC | inconclusive: 35.5 µM [inhibitor, partial curve, poor fit] |  |
| O=C(CSc1nnc(Cn2nnc3ccccc32)o1)N(Cc1ccc(F)cc1)c1ccccc1 | inconclusive: 4.61 µM [inhibitor, full curve] |  |
| CON(C)S(=O)(=O)c1cccc(C(=O)NC2CCSc3ccccc32)c1 (centres undefined) | inconclusive: 35.5 µM [inhibitor, single point] |  |
